These are yes or no findings as the source states them, for the method shown. In cells and extracts the contact can be indirect. Some results given as binding are weak or reduced against the parent protein; the word gives no strength. For part of these data: Where a sequence is shown, tags or fusion partners need not be part of it. One block for each molecule: values may come before it.
Legend:
Assay in all cases: cross-linking
[1] = biological target: T1, Ivy1 (Saccharomyces cerevisiae (endogenous in yeast vacuoles)) (UniProt Q04934)
T1 sequence: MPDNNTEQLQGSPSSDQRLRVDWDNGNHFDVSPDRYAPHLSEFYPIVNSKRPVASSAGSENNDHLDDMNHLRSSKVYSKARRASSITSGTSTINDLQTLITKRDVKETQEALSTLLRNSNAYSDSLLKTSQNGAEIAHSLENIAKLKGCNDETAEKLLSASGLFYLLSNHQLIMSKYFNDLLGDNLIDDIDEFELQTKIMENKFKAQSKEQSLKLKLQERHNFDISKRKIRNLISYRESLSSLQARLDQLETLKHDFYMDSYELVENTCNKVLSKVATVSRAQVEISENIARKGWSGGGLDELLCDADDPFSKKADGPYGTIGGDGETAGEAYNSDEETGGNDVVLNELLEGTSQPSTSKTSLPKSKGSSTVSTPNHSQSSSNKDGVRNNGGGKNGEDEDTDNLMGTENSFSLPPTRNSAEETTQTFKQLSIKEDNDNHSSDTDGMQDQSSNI

Sequences of proteins named here, by UniProt entry; tags and fusion partners are left off.
UniProt P20795: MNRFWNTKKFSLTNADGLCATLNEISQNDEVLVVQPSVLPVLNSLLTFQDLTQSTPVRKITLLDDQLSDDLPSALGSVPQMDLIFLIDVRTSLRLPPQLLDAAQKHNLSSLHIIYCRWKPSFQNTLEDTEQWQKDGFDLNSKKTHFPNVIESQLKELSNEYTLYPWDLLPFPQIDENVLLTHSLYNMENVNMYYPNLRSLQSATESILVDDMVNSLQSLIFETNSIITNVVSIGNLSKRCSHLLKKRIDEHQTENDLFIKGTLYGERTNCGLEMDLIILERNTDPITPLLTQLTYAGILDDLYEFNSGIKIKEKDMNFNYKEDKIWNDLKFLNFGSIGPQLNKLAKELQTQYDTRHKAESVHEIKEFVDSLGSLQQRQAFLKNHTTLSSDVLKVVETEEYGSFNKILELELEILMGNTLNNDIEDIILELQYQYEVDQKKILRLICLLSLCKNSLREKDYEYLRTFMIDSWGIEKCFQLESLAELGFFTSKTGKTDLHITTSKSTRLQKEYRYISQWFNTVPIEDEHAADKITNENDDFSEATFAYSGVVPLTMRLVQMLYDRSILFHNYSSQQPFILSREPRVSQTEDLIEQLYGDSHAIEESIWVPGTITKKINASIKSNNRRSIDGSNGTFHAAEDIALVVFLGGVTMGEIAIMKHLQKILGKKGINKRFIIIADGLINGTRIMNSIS
UniProt Q03308: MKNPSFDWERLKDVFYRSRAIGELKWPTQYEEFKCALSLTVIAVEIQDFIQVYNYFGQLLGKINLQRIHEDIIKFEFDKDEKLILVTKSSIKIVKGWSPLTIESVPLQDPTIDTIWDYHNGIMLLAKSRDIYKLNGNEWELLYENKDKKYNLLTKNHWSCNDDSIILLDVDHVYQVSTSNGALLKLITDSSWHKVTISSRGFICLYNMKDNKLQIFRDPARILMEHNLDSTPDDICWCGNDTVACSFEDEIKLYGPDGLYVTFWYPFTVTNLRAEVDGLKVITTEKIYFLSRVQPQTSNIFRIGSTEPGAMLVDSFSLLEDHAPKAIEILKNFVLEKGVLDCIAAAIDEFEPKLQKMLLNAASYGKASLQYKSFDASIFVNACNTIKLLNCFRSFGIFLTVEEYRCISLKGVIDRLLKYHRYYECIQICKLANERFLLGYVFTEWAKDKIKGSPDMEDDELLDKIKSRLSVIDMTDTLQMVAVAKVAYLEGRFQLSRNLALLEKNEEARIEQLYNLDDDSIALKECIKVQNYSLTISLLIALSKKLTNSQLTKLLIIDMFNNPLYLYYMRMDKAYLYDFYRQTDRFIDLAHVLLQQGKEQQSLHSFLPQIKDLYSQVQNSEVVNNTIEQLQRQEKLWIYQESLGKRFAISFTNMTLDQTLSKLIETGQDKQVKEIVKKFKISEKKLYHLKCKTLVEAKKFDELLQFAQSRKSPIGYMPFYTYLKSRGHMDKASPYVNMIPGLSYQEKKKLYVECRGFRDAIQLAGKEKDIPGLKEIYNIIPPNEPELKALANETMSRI
UniProt P32939: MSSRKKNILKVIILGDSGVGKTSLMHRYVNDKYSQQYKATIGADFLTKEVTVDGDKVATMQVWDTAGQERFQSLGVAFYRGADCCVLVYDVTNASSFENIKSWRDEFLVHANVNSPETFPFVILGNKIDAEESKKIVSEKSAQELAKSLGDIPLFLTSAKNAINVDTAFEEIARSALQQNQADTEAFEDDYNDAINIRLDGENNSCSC
UniProt Q04338: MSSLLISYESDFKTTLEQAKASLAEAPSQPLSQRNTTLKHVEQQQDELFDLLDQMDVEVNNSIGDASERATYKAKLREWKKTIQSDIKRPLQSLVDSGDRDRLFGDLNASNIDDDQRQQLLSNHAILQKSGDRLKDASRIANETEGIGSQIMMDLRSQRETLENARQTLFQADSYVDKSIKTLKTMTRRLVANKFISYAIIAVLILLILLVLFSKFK
UniProt P39940: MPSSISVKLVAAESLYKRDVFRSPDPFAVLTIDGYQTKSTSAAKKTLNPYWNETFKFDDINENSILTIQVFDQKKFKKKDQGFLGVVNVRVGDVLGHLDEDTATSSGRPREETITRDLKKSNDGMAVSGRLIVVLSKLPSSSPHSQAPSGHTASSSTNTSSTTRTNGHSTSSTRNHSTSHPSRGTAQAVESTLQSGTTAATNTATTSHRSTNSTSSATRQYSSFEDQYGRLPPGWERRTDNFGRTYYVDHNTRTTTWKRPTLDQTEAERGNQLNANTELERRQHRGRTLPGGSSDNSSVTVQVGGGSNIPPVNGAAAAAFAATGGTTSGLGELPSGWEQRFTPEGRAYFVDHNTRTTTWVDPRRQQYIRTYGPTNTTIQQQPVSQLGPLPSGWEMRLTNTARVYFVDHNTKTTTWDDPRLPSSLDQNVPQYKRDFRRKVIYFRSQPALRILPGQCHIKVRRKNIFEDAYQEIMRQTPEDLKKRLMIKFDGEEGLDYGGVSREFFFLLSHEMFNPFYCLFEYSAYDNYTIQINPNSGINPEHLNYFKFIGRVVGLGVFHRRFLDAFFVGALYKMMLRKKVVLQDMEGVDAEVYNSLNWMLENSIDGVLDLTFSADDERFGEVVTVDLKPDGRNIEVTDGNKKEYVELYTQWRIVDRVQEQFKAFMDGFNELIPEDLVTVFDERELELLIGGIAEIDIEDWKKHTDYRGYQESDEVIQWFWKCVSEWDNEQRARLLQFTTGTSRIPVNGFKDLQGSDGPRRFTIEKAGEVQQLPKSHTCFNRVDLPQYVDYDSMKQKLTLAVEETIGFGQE

[2] = biological target: T2, Nyv1 (Saccharomyces cerevisiae (endogenous in yeast vacuoles)) (UniProt Q12255)
T2 sequence: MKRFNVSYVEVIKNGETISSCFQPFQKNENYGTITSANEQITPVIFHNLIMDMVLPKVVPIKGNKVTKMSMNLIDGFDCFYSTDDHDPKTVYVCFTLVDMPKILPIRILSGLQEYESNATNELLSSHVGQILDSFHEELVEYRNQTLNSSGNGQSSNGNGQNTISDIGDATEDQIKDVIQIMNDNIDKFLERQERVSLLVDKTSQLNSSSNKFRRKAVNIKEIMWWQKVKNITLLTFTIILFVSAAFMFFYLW

[3] = biological target: T3, Ssh4 (Saccharomyces cerevisiae (endogenous in yeast vacuoles)) (UniProt P32343)
T3 sequence: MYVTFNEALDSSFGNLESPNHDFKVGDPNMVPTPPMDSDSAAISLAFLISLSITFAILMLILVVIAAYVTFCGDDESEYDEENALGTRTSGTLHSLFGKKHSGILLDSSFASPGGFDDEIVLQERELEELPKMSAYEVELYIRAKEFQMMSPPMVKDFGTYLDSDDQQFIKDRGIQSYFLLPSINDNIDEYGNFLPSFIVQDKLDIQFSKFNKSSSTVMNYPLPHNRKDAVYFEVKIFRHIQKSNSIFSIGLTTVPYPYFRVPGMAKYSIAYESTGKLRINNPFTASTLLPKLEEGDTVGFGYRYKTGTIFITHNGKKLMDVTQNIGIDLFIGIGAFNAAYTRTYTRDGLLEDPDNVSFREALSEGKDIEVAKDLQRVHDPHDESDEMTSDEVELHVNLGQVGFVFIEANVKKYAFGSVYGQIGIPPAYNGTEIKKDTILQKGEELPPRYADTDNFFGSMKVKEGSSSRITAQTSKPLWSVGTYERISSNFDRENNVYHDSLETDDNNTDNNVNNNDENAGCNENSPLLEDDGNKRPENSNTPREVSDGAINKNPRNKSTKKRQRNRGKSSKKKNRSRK

[4] = biological target: Vps33 (Saccharomyces cerevisiae (endogenous in yeast vacuoles)) (UniProt P20795)
[5] = biological target: Vps16 (Saccharomyces cerevisiae (endogenous in yeast vacuoles)) (UniProt Q03308)
[6] = biological target: T4, Sec17 (Saccharomyces cerevisiae (endogenous in yeast vacuoles)), P32602; settings: remark: other sources report otherwise
T4 chain: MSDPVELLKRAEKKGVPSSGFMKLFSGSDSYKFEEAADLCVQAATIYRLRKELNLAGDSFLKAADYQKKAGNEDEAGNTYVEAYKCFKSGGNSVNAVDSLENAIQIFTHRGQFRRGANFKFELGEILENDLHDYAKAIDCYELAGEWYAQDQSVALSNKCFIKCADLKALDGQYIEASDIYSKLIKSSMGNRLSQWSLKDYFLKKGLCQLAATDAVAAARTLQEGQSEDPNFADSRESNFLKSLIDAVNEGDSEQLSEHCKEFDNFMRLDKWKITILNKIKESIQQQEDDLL

[7] = biological target: T5, Lcb4 (Saccharomyces cerevisiae (endogenous in yeast vacuoles)) (UniProt Q12246)
T5 sequence (chain, palmitoylated (site not printed)): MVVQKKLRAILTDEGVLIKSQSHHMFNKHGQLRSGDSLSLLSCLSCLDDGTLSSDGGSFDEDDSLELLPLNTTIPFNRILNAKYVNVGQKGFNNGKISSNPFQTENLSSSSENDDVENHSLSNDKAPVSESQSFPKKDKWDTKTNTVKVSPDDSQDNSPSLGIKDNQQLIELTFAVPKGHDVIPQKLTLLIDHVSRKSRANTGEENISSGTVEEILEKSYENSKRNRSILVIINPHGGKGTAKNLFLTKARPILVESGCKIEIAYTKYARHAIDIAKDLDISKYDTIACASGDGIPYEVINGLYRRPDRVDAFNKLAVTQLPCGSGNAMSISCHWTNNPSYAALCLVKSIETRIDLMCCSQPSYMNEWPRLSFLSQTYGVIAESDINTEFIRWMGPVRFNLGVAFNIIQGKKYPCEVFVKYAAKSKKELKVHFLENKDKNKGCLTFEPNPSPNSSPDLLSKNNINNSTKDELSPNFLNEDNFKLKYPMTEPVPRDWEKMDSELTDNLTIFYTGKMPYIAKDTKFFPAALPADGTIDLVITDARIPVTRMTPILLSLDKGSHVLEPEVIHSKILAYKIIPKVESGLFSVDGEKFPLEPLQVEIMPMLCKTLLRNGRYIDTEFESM

[8] = biological target: T6, Sec17 (Saccharomyces cerevisiae (endogenous in yeast vacuoles)) (UniProt P32602)
T6 sequence: T4 chain

[9] = biological target: T7, Vam3 (Saccharomyces cerevisiae (endogenous in yeast vacuoles)) (UniProt Q12241)
T7 sequence: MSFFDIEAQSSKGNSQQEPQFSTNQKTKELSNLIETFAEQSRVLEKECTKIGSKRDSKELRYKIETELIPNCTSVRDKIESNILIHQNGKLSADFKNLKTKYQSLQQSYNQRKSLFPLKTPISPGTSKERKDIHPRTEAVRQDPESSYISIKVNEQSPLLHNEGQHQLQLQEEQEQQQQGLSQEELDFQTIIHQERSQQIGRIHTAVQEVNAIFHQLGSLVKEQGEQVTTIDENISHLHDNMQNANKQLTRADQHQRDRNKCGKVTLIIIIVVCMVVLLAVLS

- binding [1]: binds
Molecule: Ypt7 (from UniProt P32939 1-208)

- binding [2]: binds
Molecule: Vti1 (from UniProt Q04338 1-217)

- binding [3]: binds
Molecule: Rsp5 (from UniProt P39940 1-809) (enzyme)

- binding [4]: binds
- binding [5]: binds
B1: Nyv1 (protein, UniProt Q12255 1-253)
chain: T2 sequence

- binding [6]: binds
B2: Nyv1, Q12255 1-253 (protein)
chain: T2 sequence

- binding [7]: binds
B3: Akr1 (enzyme, UniProt P39010 1-764)
chain: MVNELENVPRASTLTNEEQTVDPSNNDSQEDISLGDSNEITSLASLKAIRSGNEEESGNEQVNHNDEAEEDPLLTRYHTACQRGDLATVKEMIHGKLLEVNNDGDSTEHITGLHWASINNRLSVVDFLVSQGADVNARAGALHATPLHWAARYGYVYIVDFLLKHGADPTMTDDQGFNLLHLSVNSSNIMLVLYVLFNVVSKGLLDIDCRDPKGRTSLLWAAYQGDSLTVAELLKFGASIKIADTEGFTPLHWGTVKGQPHVLKYLIQDGADFFQKTDTGKDCFAIAQEMNTVYSLREALTHSGFDYHGYPIKKWFKKSQHAKLVTFITPFLFLGIAFALFSHINPLFVIIVLFLLAIATNKGLNKFVLPSYGRMGVHNVTLLRSPLLSGVFFGTLLWVTIVWFFKVMPRTFSDEQYTNILMLVILVSVFYLFGQLVIMDPGCLPEETDHENVRQTISNLLEIGKFDTKNFCIETWIRKPLRSKFSPLNNAVVARFDHYCPWIFNDVGLKNHKAFIFFITLMESGIFTFLALCLEYFDELEDAHEDTSQKNGKCFILGASDLCSGLIYDRFVFLILLWALLQSIWVASLIFVQAFQICKGMTNTEFNVLMKESKSIGPDGLSFNENFNTTPEGFAPSIDPGEESNDTVLAPVPGSTIRKPRTCFGVCYAVTGMDQWLAVIKETIGIKDSTGHNVYSITSRIPTNYGWKRNVKDFWLTSDINAPLWRRILYPPSGSKALLNGIEVDYFKLYKLPNKDVEQGNDMV

- binding [2]: binds
- binding [5]: binds
B4: Vam3 (protein, UniProt Q12241 1-283)
chain: T7 sequence

- binding [6]: binds
B5: Vam3, Q12241 1-283 (protein)
chain: T7 sequence

- binding [8]: binds
- binding [9]: binds
B6: Ykt6 (protein, UniProt P36015 1-200)
chain: MRIYYIGVFRSGGEKALELSEVKDLSQFGFFERSSVGQFMTFFAETVASRTGAGQRQSIEEGNYIGHVYARSEGICGVLITDKEYPVRPAYTLLNKILDEYLVAHPKEEWADVTETNDALKMKQLDTYISKYQDPSQADAIMKVQQELDETKIVLHKTIENVLQRGEKLDNLVDKSESLTASSKMFYKQAKKSNSCCIIM

— article doi:10.1101/2023.08.21.554079
